Target: the molecule itself
Test: ITC; titration of the protein into buffer (dilution); dimer to monomers; 20 mM HEPES pH 7.5, 100 mM NaCl, 0.25 mM TCEP

B1: Hook1_(1–239)GCN4 (other)
chain: MEETQPPPQPKLPLCDSLMIWLQTFNTASPCQDVKQLTSGVAMAQVLHQIDAAWFNESWLSRIKEDVGDNWRIKASNVKKVLQGIMSYYHEFLGQQISEALIPDLNQITECSDPVELGRLLQLILGCAINCEKKQEHIQNIMTLEESVQHVVMTAIQELMSKEILSSPPNDAVGELEQQLKRALEELQEALAEKEELRQRCEELDMQVTTLQDEKNSLVSENEMMNEKLDQLDGSFDDPMKQLEDKVEELLSKNYHLENEVARLKKL
notes: human Hook1, UniProt Q9UJC3-1, residues 1-239; 28-a.a; Dimeric construct stabilised by the GCN4 leucine zipper; source: E. coli BL21 (DE3), purified (amylose column, TEV cleavage, gel filtration)
binding result: binds

From paper PMC5841405 (Nature Communications, 2018)
